Results: the supplement of paper PMC4604168 (melanoma cell lines)
This is one part of the list. Many values rest on one well or one pass, so single values are uncertain.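 The apoptosis fraction was the count of cleaved-PARP antibody-stained nuclei relative to all DNA-stained nuclei, imaged in 1,536-well plates. Screening doses were set so most cells survived, and baseline and induced cleaved-PARP levels vary greatly across cell lines.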

How the values were obtained:
Assay in all cases: cleaved PARP positive nuclei fraction relative to DMSO control; melanoma cells; higher = more apoptosis
Conditions in all cases: library dose: low library concentration; 72 h
501Mel = system: 501Mel
A101D = system: A101D
A2058 = system: A2058
A375 = system: A375
C32 = system: C32
CBRC008 = system: CBRC008 (line from a melanoma biopsy)
CBRC014 = system: CBRC014 (line from a melanoma biopsy)
CBRC016 = system: CBRC016 (line from a melanoma biopsy)
CBRC017 = system: CBRC017 (line from a melanoma biopsy)

| Structure (SMILES) | cleaved PARP positive nuclei fraction (501Mel) | cleaved PARP positive nuclei fraction (A101D) | cleaved PARP positive nuclei fraction (A2058) | cleaved PARP positive nuclei fraction (A375) | cleaved PARP positive nuclei fraction (C32) | cleaved PARP positive nuclei fraction (CBRC008) | cleaved PARP positive nuclei fraction (CBRC014) | cleaved PARP positive nuclei fraction (CBRC016) | cleaved PARP positive nuclei fraction (CBRC017) |
| --- | --- | --- | --- | --- | --- | --- | --- | --- | --- |
| Cc1cn(-c2cc(NC(=O)c3ccc(C)c(Nc4nccc(-c5cccnc5)n4)c3)cc(C(F)(F)F)c2)cn1 [nilotinib] + OCc1c[nH]c2ccccc12 [Indole-3-carbinol] (first compound 0.2 µM, partner dose 0.8 µM) | 159% | 69.1% | 189% | 76.2% | 77.4% | 97.1% | 96.8% | 97.6% | 96.1% |
| O=C(/C=C/c1cccnc1)NCCCCC1CCN(C(=O)c2ccccc2)CC1 + C[C@]1(O)C[C@@H](c2nc(-c3ccc4ccc(-c5ccccc5)nc4c3)c3c(N)nccn32)C1 [OSI906] (first compound 0.01 µM, partner dose 0.4 µM) | 207% | 86.3% | 102% | 690% | 79.4% | 938% | 133% | 938% | 456% |
| Cc1ccc(Nc2nccc(N(C)c3ccc4c(C)n(C)nc4c3)n2)cc1S(N)(=O)=O [Pazopanib] + C=C(c1ccc(C(=O)O)cc1)c1cc2c(cc1C)C(C)(C)CCC2(C)C [Bexarotene] (first compound 0.4 µM, partner dose 2 µM) | 88% | 215% | 59.9% | 123% | 99.9% | 39.8% | 107% | 157% | 113% |
| CCCCCCCCCCCCCCCCCCOP(=O)([O-])OC1CC[N+](C)(C)CC1 [Perifosine] + Cc1cn(-c2cc(NC(=O)c3ccc(C)c(Nc4nccc(-c5cccnc5)n4)c3)cc(C(F)(F)F)c2)cn1 [nilotinib] (first compound 0.4 µM, partner dose 0.2 µM) | 77.8% | 300% | 166% | 112% | 82.2% | 257% | 95.9% | 89.7% | 82.7% |
| Cc1cn(-c2cc(NC(=O)c3ccc(C)c(Nc4nccc(-c5cccnc5)n4)c3)cc(C(F)(F)F)c2)cn1 [nilotinib] + CO[C@H]1C[C@@H]2CC[C@@H](C)[C@@](O)(O2)C(=O)C(=O)N2CCCC[C@H]2C(=O)O[C@H]([C@H](C)C[C@@H]2CC[C@@H](OCCO)[C@H](OC)C2)CC(=O)[C@H](C)/C=C(\C)[C@@H](O)[C@@H](OC)C(=O)[C@H](C)C[C@H](C)/C=C/C=C/C=C/1C [everolimus] (first compound 0.2 µM, partner dose 0.02 µM) | 427% | 81% | 64.1% | 903% | 85.7% | 181% | 129% | 120% | 120% |
| Cc1cc(Nc2cc(N3CCN(C)CC3)nc(Sc3ccc(NC(=O)C4CC4)cc3)n2)n[nH]1 [Tozasertib] + CC[C@]1(O)C[C@H]2CN(CCc3c([nH]c4ccccc34)[C@@](C(=O)OC)(c3cc4c(cc3OC)N(C=O)[C@H]3[C@@](O)(C(=O)OC)[C@H](OC(C)=O)[C@]5(CC)C=CCN6CC[C@]43[C@@H]65)C2)C1 [vincristine] (first compound 0.006 µM, partner dose 0.0001 µM) | 80.6% | 51.2% | 228% | 103% | 75.2% | 122% | 87.6% | 104% | 147% |
| O=C(Nc1cc(C(F)(F)F)cc(C(F)(F)F)c1)c1cc(Cl)ccc1O + CCCCCCCCCCCCCCCCCCOP(=O)([O-])OC1CC[N+](C)(C)CC1 [Perifosine] (first compound 0.016 µM, partner dose 0.4 µM) | 72.2% | 88.7% | 94.6% | 114% | 155% | 117% | 186% | 91.3% | 106% |
| Cc1ccc(Nc2nccc(N(C)c3ccc4c(C)n(C)nc4c3)n2)cc1S(N)(=O)=O [Pazopanib] + COc1ccc(C2=N[C@@H](c3ccc(Cl)cc3)[C@@H](c3ccc(Cl)cc3)N2C(=O)N2CCNC(=O)C2)c(OC(C)C)c1 [Nutlin-3] (first compound 0.4 µM, partner dose 0.1 µM) | 53.5% | 214% | 170% | 76.6% | 83% | 209% | 108% | 126% | 110% |
| O=C(Nc1cc(C(F)(F)F)cc(C(F)(F)F)c1)c1cc(Cl)ccc1O + COc1ccc(Cl)c(Nc2nc3ccccc3nc2NS(=O)(=O)c2cccc(NC(=O)C(C)(C)N)c2)c1 [XL147] (first compound 0.016 µM, partner dose 0.8 µM) | 56.4% | 175% | 108% | 129% | 35.6% | 292% | 106% | 265% | 117% |
| O=C(Nc1cc(C(F)(F)F)cc(C(F)(F)F)c1)c1cc(Cl)ccc1O + C=CCNC1=C2C[C@@H](C)C[C@H](OC)[C@H](O)[C@@H](C)/C=C(\C)[C@H](OC(N)=O)[C@@H](OC)/C=C\C=C(/C)C(=O)NC(=CC1=O)C2=O [Tanespimycin] (first compound 0.016 µM, partner dose 0.002 µM) | 89.6% | 150% | 109% | 137% | 287% | 105% | 110% | 69.7% | 130% |

Rewritten in CSV form: part of the list above
Structure (SMILES),cleaved PARP positive nuclei fraction (501Mel),cleaved PARP positive nuclei fraction (A101D),cleaved PARP positive nuclei fraction (A2058),cleaved PARP positive nuclei fraction (A375),cleaved PARP positive nuclei fraction (C32),cleaved PARP positive nuclei fraction (CBRC008),cleaved PARP positive nuclei fraction (CBRC014),cleaved PARP positive nuclei fraction (CBRC016),cleaved PARP positive nuclei fraction (CBRC017)
"Cc1cc(Nc2cc(N3CCN(C)CC3)nc(Sc3ccc(NC(=O)C4CC4)cc3)n2)n[nH]1 [Tozasertib] + CC[C@]1(O)C[C@H]2CN(CCc3c([nH]c4ccccc34)[C@@](C(=O)OC)(c3cc4c(cc3OC)N(C=O)[C@H]3[C@@](O)(C(=O)OC)[C@H](OC(C)=O)[C@]5(CC)C=CCN6CC[C@]43[C@@H]65)C2)C1 [vincristine] (first compound 0.006 µM, partner dose 0.0001 µM)",80.6%,51.2%,228%,103%,75.2%,122%,87.6%,104%,147%
"O=C(Nc1cc(C(F)(F)F)cc(C(F)(F)F)c1)c1cc(Cl)ccc1O + CCCCCCCCCCCCCCCCCCOP(=O)([O-])OC1CC[N+](C)(C)CC1 [Perifosine] (first compound 0.016 µM, partner dose 0.4 µM)",72.2%,88.7%,94.6%,114%,155%,117%,186%,91.3%,106%
